This experiment concerns the target p53 (human (endogenous in HCT116)) (UniProt P04637). Briefly: co-IP; 300 ug whole cell lysate (RIPA) of HCT116 cells, untreated or 24 h after 10 Gy, incubated with 0.5 ug monoclonal p53 antibody; immunoblot for ERp57 and MDM2; control IP with mouse IgG2a isotype control. Background: A western blot detects proteins with antibodies after separation by electrophoresis.

No constants are given. Whether binding was seen depends on the method and setting. Binding seen in cells or lysates may run through a third protein.

As for “thiol oxidoreductase ERp57 (from UniProt P30101 25-505)”, the binding result is recorded as “no binding”.
